Values quoted from earlier work as cited in paper PMC12508156, “Non-canonical dihydrolipoyl transacetylase promotes chemotherapy resistance via mitochondrial tetrahydrofolate signaling” (Nature Communications, 2025).

Test system: A549 cells
Details: read-out: cisplatin IC50; parental A549 cells; cited from earlier work
Description: The RNAi library contains 328 shRNA clones, and each gene was targeted by 2 ~ 8 clones (Fig. 1a). Eleven genes, including DLAT, were selected as unexplored lead hits with cisplatin-sensitizing potential and were further evaluated in A549^cisR, H1299, and KB-3-1^cisR, and two acetyltrans ...

Structure (SMILES): N.N.[Cl][Pt][Cl] [cisplatin]
- IC50: 2.3 µM
